Measurements reported in article PMC6377189.
No constants are given. Whether binding was seen depends on the method and setting. In cells and extracts the contact can be indirect. Some results given as binding are weak or reduced against the parent protein; the word gives no strength.

By UniProt entry, the sequences of proteins in these tests, tags left out.
UniProt P42858: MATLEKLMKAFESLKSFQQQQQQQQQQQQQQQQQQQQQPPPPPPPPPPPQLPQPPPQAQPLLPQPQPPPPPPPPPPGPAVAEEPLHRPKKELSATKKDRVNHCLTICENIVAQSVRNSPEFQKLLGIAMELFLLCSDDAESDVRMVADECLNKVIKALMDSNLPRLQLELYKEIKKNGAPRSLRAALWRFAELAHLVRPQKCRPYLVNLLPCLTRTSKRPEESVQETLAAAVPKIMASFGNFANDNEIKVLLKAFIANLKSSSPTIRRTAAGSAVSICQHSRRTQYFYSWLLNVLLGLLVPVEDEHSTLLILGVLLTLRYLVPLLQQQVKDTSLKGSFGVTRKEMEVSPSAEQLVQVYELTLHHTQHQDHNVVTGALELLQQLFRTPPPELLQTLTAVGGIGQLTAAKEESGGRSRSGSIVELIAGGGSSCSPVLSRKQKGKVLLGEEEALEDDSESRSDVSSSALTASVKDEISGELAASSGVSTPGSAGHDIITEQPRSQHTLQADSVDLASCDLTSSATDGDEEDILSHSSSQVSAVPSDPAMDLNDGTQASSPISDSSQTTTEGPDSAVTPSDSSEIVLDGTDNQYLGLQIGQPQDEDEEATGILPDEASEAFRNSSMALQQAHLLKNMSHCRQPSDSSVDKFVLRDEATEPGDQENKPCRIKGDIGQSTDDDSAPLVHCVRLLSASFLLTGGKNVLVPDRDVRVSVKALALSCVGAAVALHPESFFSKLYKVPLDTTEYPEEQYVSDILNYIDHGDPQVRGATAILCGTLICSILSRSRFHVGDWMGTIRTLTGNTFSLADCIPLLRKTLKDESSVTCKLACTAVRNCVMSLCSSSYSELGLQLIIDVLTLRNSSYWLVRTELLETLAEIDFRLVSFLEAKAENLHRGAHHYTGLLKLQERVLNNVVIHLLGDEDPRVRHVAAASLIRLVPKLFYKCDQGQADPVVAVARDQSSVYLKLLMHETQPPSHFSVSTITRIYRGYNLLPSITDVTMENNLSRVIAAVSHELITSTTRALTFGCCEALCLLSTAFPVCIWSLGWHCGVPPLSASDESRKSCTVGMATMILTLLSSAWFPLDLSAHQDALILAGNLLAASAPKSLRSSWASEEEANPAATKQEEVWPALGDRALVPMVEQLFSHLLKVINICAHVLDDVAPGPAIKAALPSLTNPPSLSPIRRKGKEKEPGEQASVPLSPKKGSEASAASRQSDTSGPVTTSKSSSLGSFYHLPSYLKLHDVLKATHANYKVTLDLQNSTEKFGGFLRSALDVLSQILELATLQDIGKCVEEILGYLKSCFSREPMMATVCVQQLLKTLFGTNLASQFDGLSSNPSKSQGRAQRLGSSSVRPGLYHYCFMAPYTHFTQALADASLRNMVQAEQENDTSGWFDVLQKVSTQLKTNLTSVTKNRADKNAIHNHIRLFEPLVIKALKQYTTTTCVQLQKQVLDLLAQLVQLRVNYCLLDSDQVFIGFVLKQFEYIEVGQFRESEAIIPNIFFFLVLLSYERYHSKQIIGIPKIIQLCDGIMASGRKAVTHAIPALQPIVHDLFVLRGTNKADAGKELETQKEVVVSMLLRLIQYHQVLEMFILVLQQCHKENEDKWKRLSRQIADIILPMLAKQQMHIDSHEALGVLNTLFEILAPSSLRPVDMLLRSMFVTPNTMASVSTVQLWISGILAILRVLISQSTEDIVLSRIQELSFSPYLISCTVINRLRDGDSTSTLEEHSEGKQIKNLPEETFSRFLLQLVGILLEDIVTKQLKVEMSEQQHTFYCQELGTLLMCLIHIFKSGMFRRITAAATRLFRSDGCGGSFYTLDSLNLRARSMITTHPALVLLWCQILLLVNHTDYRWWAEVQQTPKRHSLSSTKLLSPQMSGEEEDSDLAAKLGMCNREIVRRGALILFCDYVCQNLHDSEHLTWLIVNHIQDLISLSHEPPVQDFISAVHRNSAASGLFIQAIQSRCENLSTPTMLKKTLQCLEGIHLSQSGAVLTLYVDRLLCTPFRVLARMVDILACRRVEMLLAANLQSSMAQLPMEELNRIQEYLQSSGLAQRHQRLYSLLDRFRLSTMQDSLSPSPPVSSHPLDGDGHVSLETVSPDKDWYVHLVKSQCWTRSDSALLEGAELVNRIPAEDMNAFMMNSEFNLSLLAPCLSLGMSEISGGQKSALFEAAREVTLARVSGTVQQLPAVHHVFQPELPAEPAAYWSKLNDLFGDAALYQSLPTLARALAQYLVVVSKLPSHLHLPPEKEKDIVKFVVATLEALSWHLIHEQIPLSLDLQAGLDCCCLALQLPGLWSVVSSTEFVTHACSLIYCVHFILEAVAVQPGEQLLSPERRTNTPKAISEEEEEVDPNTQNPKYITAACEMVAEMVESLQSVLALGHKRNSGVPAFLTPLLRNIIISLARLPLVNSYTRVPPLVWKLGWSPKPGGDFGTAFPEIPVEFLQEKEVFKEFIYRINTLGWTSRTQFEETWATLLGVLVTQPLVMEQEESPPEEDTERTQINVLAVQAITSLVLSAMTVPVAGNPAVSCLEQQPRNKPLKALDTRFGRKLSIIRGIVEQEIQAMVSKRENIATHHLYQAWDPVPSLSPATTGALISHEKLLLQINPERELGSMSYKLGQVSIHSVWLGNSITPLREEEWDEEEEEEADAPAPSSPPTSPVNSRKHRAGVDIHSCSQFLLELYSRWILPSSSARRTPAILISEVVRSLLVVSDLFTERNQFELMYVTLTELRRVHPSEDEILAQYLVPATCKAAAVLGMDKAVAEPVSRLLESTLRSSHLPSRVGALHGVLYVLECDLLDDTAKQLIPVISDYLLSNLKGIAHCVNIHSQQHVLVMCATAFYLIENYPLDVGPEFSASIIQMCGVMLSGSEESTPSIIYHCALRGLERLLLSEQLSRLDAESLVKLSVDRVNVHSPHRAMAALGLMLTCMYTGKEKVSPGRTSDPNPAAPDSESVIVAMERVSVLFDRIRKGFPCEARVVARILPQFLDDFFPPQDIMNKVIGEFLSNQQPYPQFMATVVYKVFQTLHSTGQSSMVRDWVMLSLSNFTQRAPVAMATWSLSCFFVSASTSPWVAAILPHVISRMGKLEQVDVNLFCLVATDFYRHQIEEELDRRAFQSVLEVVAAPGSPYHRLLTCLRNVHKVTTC
UniProt P12814: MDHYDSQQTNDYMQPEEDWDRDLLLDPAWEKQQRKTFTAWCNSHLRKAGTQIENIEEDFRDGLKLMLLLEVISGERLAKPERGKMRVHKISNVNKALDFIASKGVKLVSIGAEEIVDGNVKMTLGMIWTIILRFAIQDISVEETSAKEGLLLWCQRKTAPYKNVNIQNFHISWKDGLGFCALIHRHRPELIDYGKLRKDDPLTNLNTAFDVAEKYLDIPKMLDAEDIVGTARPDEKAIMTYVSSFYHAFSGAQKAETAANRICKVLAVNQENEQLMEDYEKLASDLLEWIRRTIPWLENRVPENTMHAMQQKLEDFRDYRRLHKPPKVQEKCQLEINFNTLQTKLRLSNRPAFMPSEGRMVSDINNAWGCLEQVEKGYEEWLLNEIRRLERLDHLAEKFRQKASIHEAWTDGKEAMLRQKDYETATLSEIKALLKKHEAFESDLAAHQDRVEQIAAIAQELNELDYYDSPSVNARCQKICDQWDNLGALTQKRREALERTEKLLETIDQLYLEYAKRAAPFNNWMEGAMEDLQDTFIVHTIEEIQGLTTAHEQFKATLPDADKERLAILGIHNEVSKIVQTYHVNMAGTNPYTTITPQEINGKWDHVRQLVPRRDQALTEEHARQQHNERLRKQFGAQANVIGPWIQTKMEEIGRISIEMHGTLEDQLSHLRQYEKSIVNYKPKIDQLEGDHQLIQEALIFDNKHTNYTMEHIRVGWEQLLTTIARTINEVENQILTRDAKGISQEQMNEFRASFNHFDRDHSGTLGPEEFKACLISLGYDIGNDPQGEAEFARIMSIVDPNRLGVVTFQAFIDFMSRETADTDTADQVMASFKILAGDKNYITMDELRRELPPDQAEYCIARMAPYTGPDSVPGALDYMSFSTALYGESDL

Assays:
[1] = target: endogenous Huntingtin (human (endogenous in primary fibroblasts and neurons)) (UniProt P42858); test: proximity ligation; Duolink PLA with polyclonal anti-Huntingtin Ab1173 and monoclonal anti-α-actinin-1 in fixed human Control 1 fibroblasts grown with or without serum
[2] = target: endogenous Huntingtin (human (endogenous in primary fibroblasts and neurons)) (UniProt P42858); test: proximity ligation; Duolink PLA with polyclonal anti-Huntingtin Ab1173 and monoclonal anti-α-actinin-1 in fixed human neurons grown in defined medium

binding [1]: binds
binding [2]: binds
Substance: endogenous α-actinin-1 (from UniProt P12814 1-892)
